The record followed here is publication PMC9935735.

Chains of the proteins cited; added tags and fusions are not shown. Residues count along the entry.
UniProt P35414: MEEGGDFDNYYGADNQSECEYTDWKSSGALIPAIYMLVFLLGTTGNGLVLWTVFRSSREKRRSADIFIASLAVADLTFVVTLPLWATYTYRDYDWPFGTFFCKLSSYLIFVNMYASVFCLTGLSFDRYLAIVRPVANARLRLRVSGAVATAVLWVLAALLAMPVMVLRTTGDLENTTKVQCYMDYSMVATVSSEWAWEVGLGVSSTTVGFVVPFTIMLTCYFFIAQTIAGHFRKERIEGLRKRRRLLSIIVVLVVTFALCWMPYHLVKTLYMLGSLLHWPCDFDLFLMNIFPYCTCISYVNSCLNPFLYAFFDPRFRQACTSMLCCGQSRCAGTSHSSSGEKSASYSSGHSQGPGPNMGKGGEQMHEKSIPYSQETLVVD
UniProt P49407, residues 2-418: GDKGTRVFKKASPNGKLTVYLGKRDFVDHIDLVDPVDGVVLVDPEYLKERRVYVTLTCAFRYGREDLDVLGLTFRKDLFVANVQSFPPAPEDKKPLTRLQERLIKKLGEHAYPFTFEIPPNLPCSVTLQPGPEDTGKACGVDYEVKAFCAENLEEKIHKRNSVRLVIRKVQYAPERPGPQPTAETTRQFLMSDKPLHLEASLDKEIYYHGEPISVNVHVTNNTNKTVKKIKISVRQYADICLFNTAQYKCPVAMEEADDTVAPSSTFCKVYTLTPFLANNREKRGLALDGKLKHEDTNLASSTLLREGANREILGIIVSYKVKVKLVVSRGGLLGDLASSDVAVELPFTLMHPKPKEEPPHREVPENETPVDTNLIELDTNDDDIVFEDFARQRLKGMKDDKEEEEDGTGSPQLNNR

In the assay the target is APJ-LgBit (human) (UniProt P35414). Briefly: split reporter; NanoBiT in live HEK293T cells transiently co-transfected with LgBit and SmBit fusions; 48 h after transfection, serum-free DMEM 3.5 h, furimazine substrate; stimulated with 1 μM apelin or ELA or PBS (series 0.1 nM to 10 μM); luminescence followed up to 60 min.

These are yes or no findings as the source states them, for the method shown. In cells and extracts the contact can be indirect. Some binding calls cover weakened binding; strength is not graded here.

With SmBit-ARRB1 (from UniProt P49407 2-418), the binding entry is recorded as “binds”.
